# Source: paper doi:10.1101/2023.12.04.569948
# Protein sequences, listed by entry. Tags and fused reporters are not part of them. Residues count along the entry.
# UniProt Q9Y6I3: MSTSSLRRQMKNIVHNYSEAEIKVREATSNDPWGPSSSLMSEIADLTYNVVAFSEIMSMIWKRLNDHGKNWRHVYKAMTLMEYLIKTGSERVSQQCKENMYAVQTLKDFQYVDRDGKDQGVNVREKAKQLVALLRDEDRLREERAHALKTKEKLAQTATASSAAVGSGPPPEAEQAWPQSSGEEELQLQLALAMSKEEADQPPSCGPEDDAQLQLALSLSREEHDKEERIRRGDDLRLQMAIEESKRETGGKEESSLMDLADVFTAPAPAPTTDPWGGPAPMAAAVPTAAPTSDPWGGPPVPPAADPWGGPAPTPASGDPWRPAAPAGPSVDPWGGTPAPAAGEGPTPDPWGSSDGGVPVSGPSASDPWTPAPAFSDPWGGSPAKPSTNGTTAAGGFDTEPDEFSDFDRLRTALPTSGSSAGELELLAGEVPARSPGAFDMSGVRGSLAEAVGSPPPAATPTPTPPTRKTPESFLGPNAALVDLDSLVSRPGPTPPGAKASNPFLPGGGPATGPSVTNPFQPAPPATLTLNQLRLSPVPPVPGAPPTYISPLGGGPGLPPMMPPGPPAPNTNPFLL
# UniProt Q07113, residues 36-2483: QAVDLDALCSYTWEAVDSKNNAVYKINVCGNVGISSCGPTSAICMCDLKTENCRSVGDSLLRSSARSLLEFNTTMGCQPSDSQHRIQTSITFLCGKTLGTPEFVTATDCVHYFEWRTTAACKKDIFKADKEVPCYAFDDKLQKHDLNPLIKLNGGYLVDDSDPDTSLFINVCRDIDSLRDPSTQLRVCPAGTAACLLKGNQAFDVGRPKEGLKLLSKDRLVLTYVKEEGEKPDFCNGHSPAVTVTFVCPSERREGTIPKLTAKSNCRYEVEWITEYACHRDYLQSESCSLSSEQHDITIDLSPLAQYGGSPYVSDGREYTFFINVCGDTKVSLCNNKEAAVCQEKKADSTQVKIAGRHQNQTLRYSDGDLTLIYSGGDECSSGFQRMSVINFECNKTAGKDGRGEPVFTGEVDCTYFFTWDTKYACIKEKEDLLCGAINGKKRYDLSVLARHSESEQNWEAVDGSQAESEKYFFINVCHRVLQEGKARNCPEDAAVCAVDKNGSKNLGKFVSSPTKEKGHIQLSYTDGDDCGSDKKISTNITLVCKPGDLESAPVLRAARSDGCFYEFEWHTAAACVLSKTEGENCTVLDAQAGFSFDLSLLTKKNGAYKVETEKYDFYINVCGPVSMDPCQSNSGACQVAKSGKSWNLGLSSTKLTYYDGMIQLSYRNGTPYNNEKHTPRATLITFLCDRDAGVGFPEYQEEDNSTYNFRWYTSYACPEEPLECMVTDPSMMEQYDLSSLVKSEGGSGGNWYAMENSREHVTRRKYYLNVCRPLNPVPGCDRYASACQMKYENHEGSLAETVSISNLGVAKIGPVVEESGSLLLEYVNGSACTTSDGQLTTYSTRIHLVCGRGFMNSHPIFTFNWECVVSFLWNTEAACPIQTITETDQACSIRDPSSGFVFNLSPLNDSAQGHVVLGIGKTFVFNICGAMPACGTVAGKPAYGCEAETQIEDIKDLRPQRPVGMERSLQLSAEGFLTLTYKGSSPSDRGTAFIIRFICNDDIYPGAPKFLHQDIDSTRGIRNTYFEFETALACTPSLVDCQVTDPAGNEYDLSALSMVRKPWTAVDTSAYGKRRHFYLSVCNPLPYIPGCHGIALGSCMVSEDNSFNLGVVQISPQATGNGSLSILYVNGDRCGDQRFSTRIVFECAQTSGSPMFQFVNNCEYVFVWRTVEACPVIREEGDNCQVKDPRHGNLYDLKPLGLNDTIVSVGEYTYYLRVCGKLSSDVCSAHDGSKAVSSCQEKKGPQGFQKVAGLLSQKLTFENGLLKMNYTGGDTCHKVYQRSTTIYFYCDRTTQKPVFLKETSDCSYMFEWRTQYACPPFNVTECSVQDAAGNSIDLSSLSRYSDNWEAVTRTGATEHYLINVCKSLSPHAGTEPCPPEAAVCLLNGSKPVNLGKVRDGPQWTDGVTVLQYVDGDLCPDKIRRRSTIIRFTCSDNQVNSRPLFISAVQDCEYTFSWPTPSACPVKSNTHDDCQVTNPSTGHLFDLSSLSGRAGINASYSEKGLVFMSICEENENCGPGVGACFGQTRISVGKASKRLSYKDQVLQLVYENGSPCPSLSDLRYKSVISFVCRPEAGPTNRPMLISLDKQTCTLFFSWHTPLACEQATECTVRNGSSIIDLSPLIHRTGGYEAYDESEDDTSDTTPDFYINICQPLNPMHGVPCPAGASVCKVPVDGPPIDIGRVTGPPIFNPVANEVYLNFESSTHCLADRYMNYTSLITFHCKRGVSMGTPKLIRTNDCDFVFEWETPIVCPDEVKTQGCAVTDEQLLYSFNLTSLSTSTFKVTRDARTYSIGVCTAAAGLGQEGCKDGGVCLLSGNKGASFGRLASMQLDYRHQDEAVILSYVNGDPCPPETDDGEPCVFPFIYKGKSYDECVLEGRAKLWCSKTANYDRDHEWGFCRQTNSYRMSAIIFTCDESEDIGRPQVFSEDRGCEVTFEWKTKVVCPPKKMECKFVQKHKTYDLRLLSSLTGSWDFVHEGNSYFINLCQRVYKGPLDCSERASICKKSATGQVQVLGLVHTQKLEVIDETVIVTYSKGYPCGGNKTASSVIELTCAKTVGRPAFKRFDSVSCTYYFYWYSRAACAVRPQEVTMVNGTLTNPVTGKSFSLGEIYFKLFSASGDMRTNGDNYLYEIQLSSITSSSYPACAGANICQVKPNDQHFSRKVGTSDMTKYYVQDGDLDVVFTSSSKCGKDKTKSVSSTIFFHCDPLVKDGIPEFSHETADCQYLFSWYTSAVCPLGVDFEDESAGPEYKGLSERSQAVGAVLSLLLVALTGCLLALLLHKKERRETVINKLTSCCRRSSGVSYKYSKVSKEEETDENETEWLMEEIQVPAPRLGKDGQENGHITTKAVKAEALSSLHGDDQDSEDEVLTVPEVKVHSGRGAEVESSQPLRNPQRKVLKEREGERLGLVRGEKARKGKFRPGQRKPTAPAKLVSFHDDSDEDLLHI
# No constants are given. Whether binding was seen depends on the method and setting. In cells and extracts the contact can be indirect. Some results given as binding are weak or reduced against the parent protein; the word gives no strength.
# Target: FLAG-epsin 1, full length (UniProt Q9Y6I3)
# Experiment: co-IP
substance,measurement,value
IGF type 2 receptor (IGF2R) (from UniProt Q07113 36-2483),binding,binds
